Measurements from PubChem BioAssay AID2685 (National Center for Advancing Translational Sciences (NCATS), 2010).
This is one part of the list. Shown are side measurements of this screen, not its main read-out; they come without a call. Most of these compounds were active or inconclusive in the main read-out, so they are no random draw. Potencies come from curve fits of mixed quality, noted in brackets.

Assay: qHTS Assay for Lipid Storage Modulators in Drosophila S3 Cells;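 for cell number change: cells counted by Cell Tracker Red CMTPX staining in the red channel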
Details: BODIPY lipid droplet fluorescence, 18-24 h; for cell number change: measured here: cell count max response, cells fed with added oleic acid
Summary of the method: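 Drosophila S3 cells loaded with oleic acid (400 uM, as added) and compounds at several concentrations; lipid droplets imaged by 488-nm laser-scanning cytometry, 500–530 nm intensity and object ratio to cell channel. Percent activity normalized to 20 uM Triacsin C.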

[1] = measured here: lipid fluorescence (Fed channel) AC50, cells fed with added oleic acid
[2] = measured here: cell number channel AC50, cells fed with added oleic acid

In the case of O=C(OCCN1CCN(c2ncc(C(F)(F)F)cc2Cl)CC1)c1ccc(Cl)cc1, the cell number change was 40.1% and the AC50 [1] was 6.51 µM [falling, single point].
For CCN(CC)CCn1c2ccccc2c2n[nH]c(=S)nc21, the cell number change was -21%.
With CC(=O)O/N=C(\N)c1cnn2c(C(F)(F)F)cc(C(F)(F)F)nc12 the cell number change was -48%, the AC50 [2] was 0.651 µM [falling, full curve] and the AC50 [1] was 1.84 µM [falling, single point].
For OCCOCCOc1ccccc1OCCOCCO, the cell number change was -16.7% and the AC50 [1] was 29.1 µM [falling, single point].
With Cc1cccc(-n2c(SCC(=O)N3CCN(c4ccccn4)CC3)nnc2N2CCOCC2)c1 the cell number change was 4.54% and the AC50 [1] was 4.11 µM [falling, full curve, poor fit].
With O=C(OCC(=O)N1CCOCC1)c1ccc2ccccc2c1 the cell number change was 38.3%, the AC50 [2] was 16.4 µM [rising, single point] and the AC50 [1] was 14.6 µM [rising, partial curve].
With CC(OC(=O)c1ccccc1Oc1ccccc1)C(=O)NC1CC1 (configuration not stated) the cell number change was 0.543%, the AC50 [2] was 0.092 µM [rising, partial curve, poor fit] and the AC50 [1] was 0.461 µM [rising, partial curve, poor fit].
For CCN1CCN(c2cc(C)c3cc(NC(=O)c4cccs4)ccc3n2)CC1, the cell number change was 19.3% and the AC50 [1] was 3.66 µM [rising, single point].
In the case of COc1cccc(OCC(O)CN2CCN(c3ncccn3)CC2)c1 (configuration not stated), the cell number change was 5.17% and the AC50 [1] was 16.4 µM [falling, single point].
With CCCCN(CC(=O)Nc1c(C)cccc1CC)C(=O)SCC the cell number change was 12.7% and the AC50 [1] was 2.31 µM [rising, full curve].
For Cc1noc(C)c1COC(=O)CCCc1c[nH]c2ccccc12, the cell number change was 13%.
For Cc1cc(C(=O)NCC(=O)OCC(=O)Nc2ccc(OC(F)F)cc2)ccc1[N+](=O)[O-], the cell number change was -8.16%, the AC50 [2] was 0.731 µM [rising, full curve] and the AC50 [1] was 0.731 µM [falling, full curve, poor fit].
With COc1ccc(C2NC(=S)NC3=C2CCCC3=C2SCCS2)cc1 (configuration not stated) the cell number change was -95.8% and the AC50 [2] was 3.66 µM [falling, full curve].
For Cc1ccc(C)c(N(C)C(=O)CCS(=O)(=O)c2cccc3nonc23)c1, the cell number change was -0.417%.
With Cc1ccc(C)c2nc3sc(C(=O)N4CCCc5ccccc54)c(N)c3cc12 the cell number change was 10.6% and the AC50 [1] was 18.4 µM [falling, single point].
In the case of CCOC(=O)C1=NNC2(c3ccc(C)cc3)C(=O)N(c3ccccc3)C(=O)C12 (configuration not stated), the cell number change was -36.3%, the AC50 [2] was 0.58 µM [falling, full curve, poor fit] and the AC50 [1] was 0.259 µM [falling, full curve, poor fit].
With COC(=O)NNC(=S)Nc1ccc(Br)cc1 the cell number change was -30.8%, the AC50 [2] was 8.2 µM [falling, partial curve, poor fit] and the AC50 [1] was 29.1 µM [falling, single point].
With COc1ccc(C(=O)N/N=C(\C)CC(=O)NC2CCCCC2)c(OC)c1 the cell number change was 5.49% and the AC50 [1] was 6.51 µM [rising, single point].
In the case of Cc1n[nH]c(C)c1S(=O)(=O)N(CC(=O)Nc1ccc2c(c1)OCCO2)c1ccc(C(C)C)cc1, the AC50 [1] was 29.1 µM [falling, single point].
With CNS(=O)(=O)c1cc(S(=O)(=O)NC)c2cccc3c2c1NC3=O the cell number change was -9.07%, the AC50 [2] was 0.0517 µM [falling, full curve, poor fit] and the AC50 [1] was 29.1 µM [rising, single point].
In the case of CN1CCN(NC(=O)c2cc(-c3ccc(Cl)s3)nc3ccccc23)CC1, the cell number change was 28.8% and the AC50 [1] was 0.58 µM [rising, single point].
With CCOC(=O)c1nnc(-c2ccccc2)[nH]c1=O the cell number change was -27% and the AC50 [1] was 0.0058 µM [falling, full curve, poor fit].
For Cc1cccc(Oc2nc(-c3ccccc3)cc(C)c2S(C)(=O)=O)c1C, the cell number change was 40.1%, the AC50 [2] was 4.11 µM [rising, partial curve, poor fit] and the AC50 [1] was 16.4 µM [rising, partial curve].
For O=S(=O)(c1ccc(F)c(F)c1F)N1CCN(C(=S)NC2CC3CCC2C3)CC1 (configuration not stated), the cell number change was 10.2%.
With COC(=O)CSc1nc2ccc(C)cc2[nH]1 the cell number change was 0.896% and the AC50 [2] was 0.58 µM [falling, single point].
In the case of Cc1ccc(NC(=O)Cc2nnc(SCC(=O)Nc3ccc(N4CCOCC4)cc3)n2C)cc1, the cell number change was 33.3% and the AC50 [2] was 0.58 µM [rising, full curve, poor fit].
In the case of COc1cc2[nH]cc(C(=O)NCCc3ccccc3)c(=O)c2cc1OC, the cell number change was -31.8% and the AC50 [2] was 11.6 µM [falling, partial curve].
For Cc1ccc(Cl)cc1NC(=S)NN, the cell number change was 18.1% and the AC50 [1] was 25.9 µM [rising, single point].
In the case of COCCCNc1c2c3c(cccc3[nH]c1=O)C(=O)c1ccccc1-2, the cell number change was -95.9%, the AC50 [2] was 20.6 µM [falling, single point] and the AC50 [1] was 13 µM [falling, partial curve].
For Cc1cc(Cl)ccc1OCC(=O)NC1CCCC1, the cell number change was 92.7%, the AC50 [2] was 16.4 µM [rising, partial curve] and the AC50 [1] was 23.1 µM [rising, partial curve].
In the case of O=C(Cc1coc2ccc3ccccc3c12)NCc1ccccc1, the cell number change was -10.3%.
In the case of CCCCN(C)C(=O)c1coc(=O)c2ccccc12, the cell number change was 37.9% and the AC50 [2] was 29.1 µM [rising, single point].
In the case of CCCc1cc(=O)[nH]c(SCC(=O)NC(=O)OCC)n1, the cell number change was -12.2%, the AC50 [2] was 0.651 µM [falling, single point] and the AC50 [1] was 0.58 µM [falling, partial curve, poor fit].
In the case of COc1ccc(CCNC(=O)Cc2cc(OC)c(OC)cc2Br)cc1OC, the AC50 [1] was 5.8 µM [rising, full curve].
In the case of CCOC(=O)c1oc2ccccc2c1CN1CC(C)OC(C)C1 (configuration not stated), the cell number change was 41% and the AC50 [2] was 16.4 µM [rising, single point].
For COc1ccc(-c2nn3c(-c4ccc(F)cc4)nnc3s2)cc1, the cell number change was -4.38% and the AC50 [1] was 0.184 µM [rising, full curve, poor fit].
In the case of COc1ccc(CCNC(=O)CCc2cn(C)c3ccccc23)c(OC)c1OC, the cell number change was 54.2%.
